2 molecules from publication PMC4884989 can be followed below.

Results are given in words; binding and its absence hold for the method and conditions named. Binding seen in cells or lysates may run through a third protein. A result given as binding can be weak or reduced; the word gives no strength. Tags and fused reporters may be left off the sequences shown.

Assay [1] deals with T1, HA-Tal (TSG101-associated ligase), in vitro translated (UniProt Q6UWE0).
T1 sequence: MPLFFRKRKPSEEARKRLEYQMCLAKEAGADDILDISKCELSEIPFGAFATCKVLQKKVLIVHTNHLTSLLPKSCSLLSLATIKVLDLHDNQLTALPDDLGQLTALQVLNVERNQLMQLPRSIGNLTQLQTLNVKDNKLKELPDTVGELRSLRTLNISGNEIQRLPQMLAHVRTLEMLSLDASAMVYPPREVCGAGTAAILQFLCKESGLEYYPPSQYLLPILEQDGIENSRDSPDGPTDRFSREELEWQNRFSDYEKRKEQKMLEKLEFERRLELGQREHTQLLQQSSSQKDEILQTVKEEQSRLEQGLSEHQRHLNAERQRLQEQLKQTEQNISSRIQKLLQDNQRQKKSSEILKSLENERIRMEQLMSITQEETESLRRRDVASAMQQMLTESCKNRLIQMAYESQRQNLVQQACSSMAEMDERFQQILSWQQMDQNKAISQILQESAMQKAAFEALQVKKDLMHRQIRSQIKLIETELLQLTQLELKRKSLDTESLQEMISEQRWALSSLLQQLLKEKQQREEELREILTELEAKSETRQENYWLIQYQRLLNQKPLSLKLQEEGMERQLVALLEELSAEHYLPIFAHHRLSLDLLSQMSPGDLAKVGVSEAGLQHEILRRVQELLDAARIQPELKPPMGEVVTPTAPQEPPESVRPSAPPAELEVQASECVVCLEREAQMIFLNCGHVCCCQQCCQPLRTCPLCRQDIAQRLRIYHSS
Put plainly: pull-down; in vitro competitive binding, competitor against Tal: in vitro translated TSGΔ154-1054 in increasing amounts and in vitro translated HA-Tal, read out as HA-Tal left on GST-TSG101 beads; buffer A, 4°C, 2 h.

The target in another assay is GST-TSGΔ154-1054 (human). Kind of assay: pull-down; GST fusion bound to glutathione-Sepharose, in vitro translated prey; buffer A (1% Triton X-100, 20 mM Tris-HCl, 140 mM NaCl, 1 mM EGTA, 10% glycerol, 1.5 mM MgCl2, 1 mM DTT, pH 8.0), 2 h at 4°C; washed with buffer B (20 mM Tris-HCl, 150 mM NaCl, 1% NP-40, pH 8.0); western blot; only the target purified.

For the molecule “TSGΔ154-1054, in vitro translated (human)”, the binding entry in assay [1] was “binds”.

B1: HA-Tal (TSG101-associated ligase), in vitro translated (enzyme, UniProt Q6UWE0 1-723)
chain: T1 sequence
Turning to B1, the binding result with GST-TSGΔ154-1054 (human) is reported as “binds”.
